Measured values from US20210340217A1, “NOVEL PEPTIDES AND COMBINATION OF PEPTIDES FOR USE IN IMMUNOTHERAPY AGAINST OVARIAN CANCER AND OTHER CANCERS” (Immatics Biotechnologies GmbH, priority 2017, published 2021).
For some of these results: Expression grades refer to the transcript from which the peptide derives; gene names, where given, were looked up from the sequence.

Columns and labels:
[1] = test system: ovarian cancer tissue samples; assay: Identification of tumor associated peptides presented on the cell surface (HLA immunoprecipitation, LC-MS); presentation across tumor types; parameters: species or system human; conditions: tumor types on which the peptide was found presented (HLA immunoprecipitation, LC-MS); abbreviations in table footnote
[2] = test system: source genes in OC tumors compared to a panel of normal tissues; assay: Expression profiling of genes encoding the peptides (RNAseq), expression scores; parameters: species or system human; key: very highly over-expressed in OC tumors compared to a panel of normal tissues (+++); highly over-expressed in OC tumors compared to a panel of normal tissues (++); over-expressed in OC tumors compared to a panel of normal tissues (+); conditions: expression score of source gene

## 411: peptide found in IDO1 (gene looked up) (LELPPILVY; listed as Homo sapiens) [compound 411]
[1]
  Peptide Presentation on tumor types: BRCA, CRC, GBC, GBM, GC, NHL, NSCLC, OSCAR, PRCA, SCLC, UBC, UEC
[2]
  Gene Expression: +

## 115: peptide found in MMP12 (gene looked up) (FVDNQYWRY; listed as Homo sapiens) [compound 115]
[1]
  Peptide Presentation on tumor types: BRCA, GBC, GC, GEJC, NSCLC,OSCAR, PACA, SCLC
[2]
  Gene Expression: +++

## 433: peptide found in STAG2 (gene looked up) (SDSQVRAF; listed as Homo sapiens) [compound 433]
[1]
  Peptide Presentation on tumor types: GBM, GC, HCC, HNSCC, NSCLC, OSCAR, RCC, SCLC, UEC
[2]
  Gene Expression: +++

## 320: peptide found in LILRB4 (gene looked up) (FPMSPVTSV; listed as Homo sapiens) [compound 320]
[1]
  Peptide Presentation on tumor types: AML, BRCA, CCC, CRC, GBC, GBM, GC, HCC, HNSCC, MEL, NHL, NSCLC, OSCAR, PACA, PRCA, RCC, SCLC, UBC, UEC
[2]
  Gene Expression: +

## 181: peptide found in CRABP2 (gene looked up) (GEGPKTSW; listed as Homo sapiens) [compound 181]
[1]
  Peptide Presentation on tumor types: NSCLC
[2]
  Gene Expression: +

## 118: peptide found in CD70 (gene looked up) (SPASRSISL; listed as Homo sapiens) [compound 118]
[1]
  Peptide Presentation on tumor types: NHL, OSCAR, RCC
[2]
  Gene Expression: ++

## 90: peptide found in ETV1 (gene looked up) (KVAGERYVYK; listed as Homo sapiens) [compound 90]
[1]
  Peptide Presentation on tumor types: CCC, UEC
[2]
  Gene Expression: ++

## 16: peptide found in MYO3B (gene looked up) (IYSPQFSRL; listed as Homo sapiens) [compound 16]
[1]
  Peptide Presentation on tumor types: BRCA, NHL, NSCLC, OSCAR, UBC, UEC
[2]
  Gene Expression: +++

## 307: peptide found in ESR1 (gene looked up) (LPYGPGSEAAAF; listed as Homo sapiens) [compound 307]
[1]
  Peptide Presentation on tumor types: BRCA, UEC
[2]
  Gene Expression: +++

## 62: peptide found in CRABP2 (gene looked up) (KVLGVNVML; listed as Homo sapiens) [compound 62]
[1]
  Peptide Presentation on tumor types: BRCA, HNSCC, MEL, NSCLC, SCLC
[2]
  Gene Expression: ++

## 246: peptide found in CCR5 (gene looked up) (RYLAVVHAVF; listed as Homo sapiens) [compound 246]
[1]
  Peptide Presentation on tumor types: HCC, NHL, NSCLC, PACA, SCLC
[2]
  Gene Expression: +

## 199: peptide found in MSLN (gene looked up) (REIDESLIFY; listed as Homo sapiens) [compound 199]
[1]
  Peptide Presentation on tumor types: NSCLC
[2]
  Gene Expression: ++

## 197: peptide found in MSLN (gene looked up) (AEVLLPRLV; listed as Homo sapiens) [compound 197]
[1]
  Peptide Presentation on tumor types: NSCLC, PACA, UEC
[2]
  Gene Expression: ++

## 321: peptide found in LILRB4 (gene looked up) (SPMDTFLLI; listed as Homo sapiens) [compound 321]
[1]
  Peptide Presentation on tumor types: AML, BRCA, CLL, CRC, GBC, GBM, GC, HCC, HNSCC, MEL, NHL, NSCLC, OSCAR, PACA, PRCA, RCC, SCLC, UBC, UEC
[2]
  Gene Expression: +

## 247: peptide found in KLK5 (gene looked up) (ARPPWMWVL; listed as Homo sapiens) [compound 247]
[1]
  Peptide Presentation on tumor types: BRCA, GBC, HNSCC, OSCAR
[2]
  Gene Expression: +++

## 269: peptide found in MELK (gene looked up) (RLKGDAWVYK; listed as Homo sapiens) [compound 269]
[1]
  Peptide Presentation on tumor types: MEL, NHL, OSCAR, UEC
[2]
  Gene Expression: ++

## 87: peptide found in CBX2 (gene looked up) (AVAPPTPASK; listed as Homo sapiens) [compound 87]
[1]
  Peptide Presentation on tumor types: AML, CRC, GBC, MEL, NSCLC, OSCAR, RCC, SCLC, UEC
[2]
  Gene Expression: ++

## 288: peptide found in LILRB4 (gene looked up) (SPVTSVHGGTY; listed as Homo sapiens) [compound 288]
[1]
  Peptide Presentation on tumor types: NHL
[2]
  Gene Expression: +

## 416: peptide found in MELK (gene looked up) (SEEETRVVF; listed as Homo sapiens) [compound 416]
[1]
  Peptide Presentation on tumor types: AML, CRC, HNSCC, NSCLC, UEC
[2]
  Gene Expression: ++

## 77: peptide found in CYP2W1 (gene looked up) (RYGPVFTV; listed as Homo sapiens) [compound 77]
[1]
  Peptide Presentation on tumor types: CCC, GC
[2]
  Gene Expression: +++

## 184: peptide found in EYA2 (gene looked up) (AELEALTDLW; listed as Homo sapiens) [compound 184]
[1]
  Peptide Presentation on tumor types: NHL, NSCLC, NSCLC
[2]
  Gene Expression: ++

## 63: peptide found in EYA2 (gene looked up) (MMEEMIFNL; listed as Homo sapiens) [compound 63]
[1]
  Peptide Presentation on tumor types: UBC
[2]
  Gene Expression: ++

## 273: peptide found in MSLN (gene looked up) (RVNAIPFTY; listed as Homo sapiens) [compound 273]
[1]
  Peptide Presentation on tumor types: GBC
[2]
  Gene Expression: ++

## 120: peptide found in ETV1 (gene looked up) (RPAMNYDKL; listed as Homo sapiens) [compound 120]
[1]
  Peptide Presentation on tumor types: CRC
[2]
  Gene Expression: ++

## 196: peptide found in MMP12 (gene looked up) (REMPGGPVW; listed as Homo sapiens) [compound 196]
[1]
  Peptide Presentation on tumor types: BRCA, CCC, CRC, GC, HCC, HNSCC, MEL, NHL, NSCLC, OSCAR, PACA, SCLC, UBC, UEC
[2]
  Gene Expression: +++

## 92: peptide found in EYA2 (gene looked up) (SVFPIENIY; listed as Homo sapiens) [compound 92]
[1]
  Peptide Presentation on tumor types: UEC
[2]
  Gene Expression: ++

## 226: peptide found in MELK (gene looked up) (QVDPKKRISM; listed as Homo sapiens) [compound 226]
[1]
  Peptide Presentation on tumor types: BRCA, NHL, NSCLC, SCLC
[2]
  Gene Expression: ++

## 163: peptide found in MUC16 (gene looked up) (QGLLRPVF; listed as Homo sapiens) [compound 163]
[2]
  Gene Expression: +++

## 395: peptide found in MSLN (gene looked up) (VLLPRLVSC; listed as Homo sapiens) [compound 395]
[1]
  Peptide Presentation on tumor types: NSCLC
[2]
  Gene Expression: ++

## 308: peptide found in ESR1 (gene looked up) (YPEGAAYEF; listed as Homo sapiens) [compound 308]
[1]
  Peptide Presentation on tumor types: PRCA, UEC
[2]
  Gene Expression: +++

## 309: peptide found in EYA2 (gene looked up) (FPQSQYPQY; listed as Homo sapiens) [compound 309]
[2]
  Gene Expression: +++

## 315: peptide found in KLK8 (gene looked up) (SPRENFPDTL; listed as Homo sapiens) [compound 315]
[1]
  Peptide Presentation on tumor types: HNSCC
[2]
  Gene Expression: +++

## 61: peptide found in CD70 (gene looked up) (YMVHIQVTL; listed as Homo sapiens) [compound 61]
[2]
  Gene Expression: ++

## 335: peptide found in MUC16 (gene looked up) (HPDPVGPGL; listed as Homo sapiens) [compound 335]
[1]
  Peptide Presentation on tumor types: NSCLC, UEC
[2]
  Gene Expression: +++

## 299: peptide found in BCAT1 (gene looked up) (HPGSSALHY; listed as Homo sapiens) [compound 299]
[1]
  Peptide Presentation on tumor types: AML, CCC, CRC, GC, HNSCC, MEL, NHL, NSCLC, OSCAR, PACA, PRCA, RCC, UEC
[2]
  Gene Expression: ++
